# Laboratory results: PubChem BioAssay AID493014 (National Center for Advancing Translational Sciences (NCATS), 2011)
# The other results are listed elsewhere or left out. These are further read-outs of the screen, such as a control signal, another cell line or another target. No call is given for them. Compounds called inactive in the main read-out are mostly missing here. Potencies come from curve fits of mixed quality, noted in brackets.
# Assay: qHTS Assay to Find Inhibitors of Chronic Active B-Cell Receptor Signaling
# Details: ABC-DLBCL IkBa-CBG/CBR reporter, luminescence ratio (green luciferase fused to IkBa over red control in TMD8 lymphoma cells), 4 h
# Outline: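 TMD8 human ABC-DLBCL cells with doxycycline-inducible IκBα–green luciferase fusion and unfused red luciferase, in 0.5% FBS medium; compounds up to 46 uM, 4 h at 37C. Green/red luminescence ratio, filter-overlap corrected, fitted to concentration-response curves.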
# [1] = measured here: CBR red luminescence, cell number
# [2] = measured here: IkBa-CBG green luminescence
SMILES,AC50 [1],AC50 [2]
COc1ccc(CCNC(=O)CCC(=O)N2CCOc3ccc(C)cc32)cc1OC,"2 µM [rising, single point]",–
Cc1nc2cc3c(cc2c(C)c1C(=O)OC(C)C)OCO3,"1.46 µM [falling, full curve, poor fit]","3.26 µM [rising, full curve, poor fit]"
NC(=S)N/N=C1\CCOc2ccc(Cl)cc21,"35.5 µM [falling, single point]",–
O=C(Nc1ncc(S(=O)(=O)c2ccc([N+](=O)[O-])cc2)s1)c1cccc2ccccc12,"0.731 µM [falling, full curve, poor fit]",–
CCn1c(SCC(=O)c2ccc(O)c(O)c2)nnc1-c1ccc(C)cc1,"35.5 µM [falling, single point]",–
COc1cccc(Nc2cc(C)c3ccccc3n2)c1,"1 µM [rising, full curve, poor fit]",–
CC(C)(C)NC(=O)Nc1nnc(SCC(=O)NC2CCCCC2)s1,"2.91 µM [rising, single point]",–
COC(=O)c1[nH]c2ccc(C)cc2c1NC(=O)Oc1ccccc1,"20.6 µM [falling, partial curve, poor fit]",–
O=C(O)CCCCNCc1ccccc1,"3.66 µM [falling, single point]",–
NNc1nc(-c2ccccc2)c2cc(Br)ccc2n1,"10 µM [falling, partial curve, poor fit]",–
O=C(NCCc1ccccc1)c1ccnc(/C=N/O)c1,"16.4 µM [falling, single point]",–
Cc1ccnc(NC(=O)c2cccc(NC(=O)CC3SC(N4CCCCC4)=NC3=O)c2)c1 (stereo not given),"6.51 µM [falling, partial curve, poor fit]",–
Nc1nc2nc(-c3ccc(F)cc3)cc(C(F)(F)F)n2n1,"7.94 µM [rising, partial curve, poor fit]",–
CCc1ccc(C2CC(c3cccc(OC)c3)n3nc(N)nc3N2)cc1 (stereo not given),"29.1 µM [rising, single point]",–
Cc1ccc(S(=O)(=O)NCCc2sc3nc(-c4ccccc4)nn3c2C)cc1C,–,"7.08 µM [rising, partial curve, poor fit]"
CCCCOc1ccc(C(=O)Nc2ccncc2)cc1,"0.58 µM [falling, full curve]","0.92 µM [rising, full curve, poor fit]"
COc1ccc(C(CNC(=O)c2cc(SC)ccc2Cl)N(C)C)cc1 (stereo not given),"22.4 µM [falling, single point]",–
O=C(Nc1nnc(-c2ccc3c(c2)CCCC3)o1)c1ccccc1Cl,"8.2 µM [falling, partial curve, poor fit]",–

# Entries of single compounds, looked up by structure.
# NC(=S)N/N=C1\CCOc2ccc(Cl)cc21 is entered as AC50 [1]: 35.5 µM [falling, single point]
# COc1ccc(C(CNC(=O)c2cc(SC)ccc2Cl)N(C)C)cc1 (stereo not given) is entered as AC50 [1]: 22.4 µM [falling, single point]
